Results as given in the supplement of paper PMC10849652.
The other results are listed elsewhere or left out.

The chains behind the UniProt entries cited, without tags or fusion partners. Where a name states a change or a piece, a line headed by the entry shows the natural chain unless it says otherwise.
UniProt Q9P2D0: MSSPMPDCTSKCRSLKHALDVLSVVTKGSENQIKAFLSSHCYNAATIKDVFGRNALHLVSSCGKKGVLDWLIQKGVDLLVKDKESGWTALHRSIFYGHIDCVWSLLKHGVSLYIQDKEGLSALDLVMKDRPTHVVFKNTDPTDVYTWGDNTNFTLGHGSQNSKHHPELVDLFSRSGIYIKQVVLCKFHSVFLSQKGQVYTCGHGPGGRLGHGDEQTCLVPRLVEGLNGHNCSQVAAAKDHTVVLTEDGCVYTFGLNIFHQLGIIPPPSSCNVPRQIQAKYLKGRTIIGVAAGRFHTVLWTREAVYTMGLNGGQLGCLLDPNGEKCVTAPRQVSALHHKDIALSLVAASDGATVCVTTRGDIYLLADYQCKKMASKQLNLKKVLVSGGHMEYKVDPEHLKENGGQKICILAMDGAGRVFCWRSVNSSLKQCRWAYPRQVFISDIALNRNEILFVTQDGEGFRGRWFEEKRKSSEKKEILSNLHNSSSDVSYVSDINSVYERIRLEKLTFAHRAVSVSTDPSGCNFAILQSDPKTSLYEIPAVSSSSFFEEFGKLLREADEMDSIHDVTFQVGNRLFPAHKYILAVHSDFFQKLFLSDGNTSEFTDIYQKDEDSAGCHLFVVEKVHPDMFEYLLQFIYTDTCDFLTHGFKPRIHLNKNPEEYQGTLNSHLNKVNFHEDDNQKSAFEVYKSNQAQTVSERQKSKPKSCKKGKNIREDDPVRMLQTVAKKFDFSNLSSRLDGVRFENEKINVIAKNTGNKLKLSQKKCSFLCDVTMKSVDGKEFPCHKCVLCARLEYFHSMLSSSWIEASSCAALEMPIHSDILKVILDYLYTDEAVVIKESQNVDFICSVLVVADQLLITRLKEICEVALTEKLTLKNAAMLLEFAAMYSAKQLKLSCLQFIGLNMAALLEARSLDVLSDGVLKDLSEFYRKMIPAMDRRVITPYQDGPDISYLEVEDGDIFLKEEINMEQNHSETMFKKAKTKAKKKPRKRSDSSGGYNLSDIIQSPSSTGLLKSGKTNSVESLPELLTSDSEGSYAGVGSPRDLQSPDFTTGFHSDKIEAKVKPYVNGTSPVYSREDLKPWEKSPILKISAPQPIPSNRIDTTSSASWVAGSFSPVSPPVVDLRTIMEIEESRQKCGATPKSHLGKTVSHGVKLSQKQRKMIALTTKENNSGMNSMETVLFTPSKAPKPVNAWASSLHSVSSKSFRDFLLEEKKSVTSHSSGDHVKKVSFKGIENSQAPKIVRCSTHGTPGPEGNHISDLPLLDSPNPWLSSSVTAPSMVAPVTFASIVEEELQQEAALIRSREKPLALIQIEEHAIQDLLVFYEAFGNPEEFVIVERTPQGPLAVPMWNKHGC
UniProt P50213: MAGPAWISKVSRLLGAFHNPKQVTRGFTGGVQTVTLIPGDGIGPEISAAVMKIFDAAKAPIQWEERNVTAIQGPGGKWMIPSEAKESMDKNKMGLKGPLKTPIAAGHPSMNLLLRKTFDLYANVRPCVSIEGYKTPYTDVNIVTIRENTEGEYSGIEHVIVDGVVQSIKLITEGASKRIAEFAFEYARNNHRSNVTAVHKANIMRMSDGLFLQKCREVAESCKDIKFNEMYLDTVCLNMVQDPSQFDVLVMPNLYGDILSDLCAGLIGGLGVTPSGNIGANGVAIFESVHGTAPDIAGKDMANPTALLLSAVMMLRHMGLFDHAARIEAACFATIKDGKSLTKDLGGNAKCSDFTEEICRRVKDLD
UniProt Q9H6K1: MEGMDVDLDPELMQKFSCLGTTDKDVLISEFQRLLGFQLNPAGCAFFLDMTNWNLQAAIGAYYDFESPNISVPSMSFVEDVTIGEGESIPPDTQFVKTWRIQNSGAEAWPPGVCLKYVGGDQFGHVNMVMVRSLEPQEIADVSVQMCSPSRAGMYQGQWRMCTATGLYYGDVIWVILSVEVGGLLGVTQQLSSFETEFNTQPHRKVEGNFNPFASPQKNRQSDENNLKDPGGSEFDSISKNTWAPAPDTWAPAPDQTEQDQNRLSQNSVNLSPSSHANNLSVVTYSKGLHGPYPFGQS
UniProt Q92598: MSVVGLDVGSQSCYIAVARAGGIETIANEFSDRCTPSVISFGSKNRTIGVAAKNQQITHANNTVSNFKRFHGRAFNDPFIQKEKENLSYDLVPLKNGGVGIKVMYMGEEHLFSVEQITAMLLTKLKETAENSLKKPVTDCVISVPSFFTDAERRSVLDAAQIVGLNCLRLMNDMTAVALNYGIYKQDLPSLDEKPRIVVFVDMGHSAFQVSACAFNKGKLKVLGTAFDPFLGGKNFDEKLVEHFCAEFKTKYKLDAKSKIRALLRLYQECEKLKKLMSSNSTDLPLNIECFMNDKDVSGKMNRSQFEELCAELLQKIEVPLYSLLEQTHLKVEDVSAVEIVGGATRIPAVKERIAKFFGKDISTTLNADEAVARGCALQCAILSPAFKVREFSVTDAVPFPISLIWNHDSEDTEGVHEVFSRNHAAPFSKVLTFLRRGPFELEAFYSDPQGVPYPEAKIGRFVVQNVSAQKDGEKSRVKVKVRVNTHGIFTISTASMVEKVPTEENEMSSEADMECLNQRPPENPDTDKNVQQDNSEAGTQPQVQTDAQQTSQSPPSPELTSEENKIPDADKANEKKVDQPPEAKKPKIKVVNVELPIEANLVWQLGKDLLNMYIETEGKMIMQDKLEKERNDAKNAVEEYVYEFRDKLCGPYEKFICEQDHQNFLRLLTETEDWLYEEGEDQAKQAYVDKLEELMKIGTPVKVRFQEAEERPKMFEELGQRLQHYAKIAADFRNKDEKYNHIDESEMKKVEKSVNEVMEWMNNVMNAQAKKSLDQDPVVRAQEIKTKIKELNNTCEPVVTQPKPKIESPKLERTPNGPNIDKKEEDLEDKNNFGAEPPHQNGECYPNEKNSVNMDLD
UniProt Q969P0: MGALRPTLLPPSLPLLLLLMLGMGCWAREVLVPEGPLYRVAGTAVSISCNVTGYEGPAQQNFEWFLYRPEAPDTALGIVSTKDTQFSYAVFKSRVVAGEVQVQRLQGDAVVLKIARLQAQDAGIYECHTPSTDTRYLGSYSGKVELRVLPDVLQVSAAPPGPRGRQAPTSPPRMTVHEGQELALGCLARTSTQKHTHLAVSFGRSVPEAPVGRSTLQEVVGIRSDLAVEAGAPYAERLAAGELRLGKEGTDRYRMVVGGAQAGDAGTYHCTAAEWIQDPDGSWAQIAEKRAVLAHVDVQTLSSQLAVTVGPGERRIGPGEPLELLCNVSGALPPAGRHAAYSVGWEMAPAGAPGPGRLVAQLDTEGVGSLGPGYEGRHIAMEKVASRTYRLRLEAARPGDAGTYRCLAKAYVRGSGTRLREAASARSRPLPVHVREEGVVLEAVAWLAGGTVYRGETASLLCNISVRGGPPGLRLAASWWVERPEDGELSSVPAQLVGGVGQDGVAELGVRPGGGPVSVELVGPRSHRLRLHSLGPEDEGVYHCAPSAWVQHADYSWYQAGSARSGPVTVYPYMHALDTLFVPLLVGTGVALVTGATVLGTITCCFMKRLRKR
UniProt P29218: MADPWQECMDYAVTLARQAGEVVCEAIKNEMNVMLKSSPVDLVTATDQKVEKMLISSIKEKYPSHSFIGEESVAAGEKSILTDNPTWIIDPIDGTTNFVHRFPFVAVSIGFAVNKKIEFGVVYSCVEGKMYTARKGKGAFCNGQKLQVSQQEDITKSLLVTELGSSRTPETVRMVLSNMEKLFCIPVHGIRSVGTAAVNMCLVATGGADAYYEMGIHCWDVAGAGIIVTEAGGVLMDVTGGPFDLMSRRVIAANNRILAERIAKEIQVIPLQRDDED
UniProt Q8N201, whole entry, looked up: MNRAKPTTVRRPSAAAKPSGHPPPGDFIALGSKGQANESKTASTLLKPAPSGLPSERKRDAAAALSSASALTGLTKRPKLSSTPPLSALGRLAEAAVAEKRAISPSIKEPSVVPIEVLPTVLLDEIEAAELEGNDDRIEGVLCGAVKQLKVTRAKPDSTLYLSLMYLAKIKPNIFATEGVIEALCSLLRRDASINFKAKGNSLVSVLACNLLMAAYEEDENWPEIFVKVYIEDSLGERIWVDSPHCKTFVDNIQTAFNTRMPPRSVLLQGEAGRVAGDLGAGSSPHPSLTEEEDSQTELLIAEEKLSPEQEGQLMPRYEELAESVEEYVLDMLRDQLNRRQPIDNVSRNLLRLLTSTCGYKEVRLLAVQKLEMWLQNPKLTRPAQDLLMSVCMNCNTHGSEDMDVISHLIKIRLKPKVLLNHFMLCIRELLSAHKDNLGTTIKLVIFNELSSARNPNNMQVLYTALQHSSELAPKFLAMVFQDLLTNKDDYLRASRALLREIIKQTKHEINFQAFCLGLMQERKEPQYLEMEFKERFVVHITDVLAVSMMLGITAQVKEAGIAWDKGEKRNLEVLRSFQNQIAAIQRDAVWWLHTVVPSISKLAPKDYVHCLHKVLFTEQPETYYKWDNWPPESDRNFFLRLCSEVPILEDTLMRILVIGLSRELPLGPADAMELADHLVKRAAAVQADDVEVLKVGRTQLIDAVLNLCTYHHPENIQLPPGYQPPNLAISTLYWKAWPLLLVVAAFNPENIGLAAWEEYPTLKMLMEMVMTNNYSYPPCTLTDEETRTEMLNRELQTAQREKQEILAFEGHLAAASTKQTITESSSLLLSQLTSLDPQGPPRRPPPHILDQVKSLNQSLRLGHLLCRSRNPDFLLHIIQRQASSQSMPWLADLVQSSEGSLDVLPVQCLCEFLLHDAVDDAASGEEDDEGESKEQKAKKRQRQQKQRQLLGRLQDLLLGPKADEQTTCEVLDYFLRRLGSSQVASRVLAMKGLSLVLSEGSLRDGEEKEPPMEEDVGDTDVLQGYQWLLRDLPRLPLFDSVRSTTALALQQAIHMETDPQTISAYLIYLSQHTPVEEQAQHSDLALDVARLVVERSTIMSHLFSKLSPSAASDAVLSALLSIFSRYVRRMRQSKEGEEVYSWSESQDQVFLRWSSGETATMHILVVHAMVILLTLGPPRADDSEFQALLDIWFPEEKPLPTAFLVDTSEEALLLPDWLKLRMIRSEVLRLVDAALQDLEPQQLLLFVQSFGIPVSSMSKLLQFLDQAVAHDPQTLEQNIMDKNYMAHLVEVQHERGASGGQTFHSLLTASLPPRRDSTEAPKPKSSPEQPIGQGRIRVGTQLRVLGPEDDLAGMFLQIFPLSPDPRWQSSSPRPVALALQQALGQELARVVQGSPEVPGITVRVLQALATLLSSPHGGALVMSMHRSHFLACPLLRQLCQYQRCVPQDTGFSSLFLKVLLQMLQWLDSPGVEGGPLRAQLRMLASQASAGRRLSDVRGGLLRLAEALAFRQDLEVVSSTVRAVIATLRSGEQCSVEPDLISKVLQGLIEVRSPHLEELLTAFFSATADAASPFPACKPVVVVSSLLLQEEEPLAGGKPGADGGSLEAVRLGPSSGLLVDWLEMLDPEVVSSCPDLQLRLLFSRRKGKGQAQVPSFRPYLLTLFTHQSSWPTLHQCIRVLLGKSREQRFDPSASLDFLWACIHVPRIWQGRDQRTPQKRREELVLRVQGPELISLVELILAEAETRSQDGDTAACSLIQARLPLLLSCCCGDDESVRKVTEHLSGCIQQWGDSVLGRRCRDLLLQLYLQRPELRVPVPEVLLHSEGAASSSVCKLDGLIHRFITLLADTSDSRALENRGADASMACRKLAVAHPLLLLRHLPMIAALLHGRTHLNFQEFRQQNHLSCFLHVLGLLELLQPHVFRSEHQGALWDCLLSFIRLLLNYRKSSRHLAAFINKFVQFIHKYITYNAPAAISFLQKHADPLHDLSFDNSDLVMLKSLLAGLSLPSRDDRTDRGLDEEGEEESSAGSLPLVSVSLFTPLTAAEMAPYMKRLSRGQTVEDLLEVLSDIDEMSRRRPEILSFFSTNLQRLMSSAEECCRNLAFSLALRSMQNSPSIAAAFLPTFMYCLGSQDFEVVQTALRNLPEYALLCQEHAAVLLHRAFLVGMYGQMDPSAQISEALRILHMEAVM
UniProt Q13418: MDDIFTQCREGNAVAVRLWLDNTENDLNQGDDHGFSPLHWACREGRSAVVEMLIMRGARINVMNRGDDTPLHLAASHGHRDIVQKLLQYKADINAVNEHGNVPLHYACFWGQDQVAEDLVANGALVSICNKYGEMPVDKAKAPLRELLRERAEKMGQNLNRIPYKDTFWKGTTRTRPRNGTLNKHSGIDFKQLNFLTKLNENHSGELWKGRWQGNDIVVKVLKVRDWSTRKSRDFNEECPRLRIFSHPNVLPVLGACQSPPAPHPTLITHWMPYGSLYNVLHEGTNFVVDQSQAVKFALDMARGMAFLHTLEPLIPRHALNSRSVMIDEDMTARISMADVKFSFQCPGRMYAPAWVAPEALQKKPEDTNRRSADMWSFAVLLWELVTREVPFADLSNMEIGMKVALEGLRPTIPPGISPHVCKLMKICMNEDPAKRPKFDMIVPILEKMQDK
UniProt Q9Y547: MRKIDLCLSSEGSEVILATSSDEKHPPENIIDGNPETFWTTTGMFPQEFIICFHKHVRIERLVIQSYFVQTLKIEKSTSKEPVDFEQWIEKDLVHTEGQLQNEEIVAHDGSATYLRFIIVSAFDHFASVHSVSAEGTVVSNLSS

Columns and labels:
Test in all cases: log2 fold change, soluble protein after heating vs DMSO (PISA); higher = thermal stabilisation; K562 lysate, 10 uM; active = over 0.2 and 3.5 SD of the protein, either way, in both replicates (recomputed)
[1] = compound: Cc1cn(-c2cc(NC(=O)c3ccc(C)c(Nc4nccc(-c5cccnc5)n4)c3)cc(C(F)(F)F)c2)cn1 [nilotinib]
Procedure, shortened: (§1)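 A 30 min treatment with 10 μM compound was applied to crude K562 extract at 1 mg/mL protein in PBS pH 7.4 with 1 mM MgCl2. Heating for 3 min spanned 48°C-58°C, after which aliquots were pooled, adjusted to 0.5% NP-40 at 4°C and spun at 21,000xg for 90 min. TMTpro 16plex LC-MS/MS of the supernatant, with channel sums equalised, gave values recorded as log-two fold change in thermal stability against solvent controls, from duplicates.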

[2] = compound: Cc1nc(Nc2n[nH]c3c2CN(C(=O)N[C@H](CN(C)C)c2ccccc2)C3(C)C)c2sccc2n1
Procedure, shortened: as §1

[3] = compound: Cc1nc(Nc2ncc(C(=O)Nc3c(C)cccc3Cl)s2)cc(N2CCN(CCO)CC2)n1 [dasatinib]
Procedure, shortened: as §1

[4] = compound: Cc1ncc(-c2ccnc(Nc3ccc(S(C)(=O)=O)cc3)n2)n1C(C)C
Procedure, shortened: as §1

[5] = compound: Cn1cc(-c2ccc3c(c2)CCN3C(=O)Cc2cccc(C(F)(F)F)c2)c2c(N)ncnc21
Procedure, shortened: as §1

[6] = compound: Cn1cc(CNCC2CCN(c3ncc(C(=O)NO)cn3)CC2)c2ccccc21 [quisinostat]
Procedure, shortened: as §1

[7] = compound: Cn1cncc1[C@@](N)(c1ccc(Cl)cc1)c1ccc2c(c1)c(-c1cccc(Cl)c1)cc(=O)n2C [tipifarnib]
Procedure, shortened: as §1

[8] = compound: NC(=O)Nc1cc(-c2cccc(F)c2)sc1C(=O)N[C@H]1CCCNC1
Procedure, shortened: as §1

[9] = compound: NC(=O)c1cnc(N[C@@H]2CCCC[C@@H]2N)nc1Nc1cccc(-n2nccn2)c1
Procedure, shortened: as §1

[10] = compound: NC1(c2ccc(-c3nc4ccn5c(=O)[nH]nc5c4cc3-c3ccccc3)cc2)CCC1
Procedure, shortened: as §1

Measured: log2 fold change

IBTK (UniProt Q9P2D0)
inactive: [1] -0.025 | [2] -0.029 | [3] -0.04 | [4] 0.007 | [5] -0.01 | [6] 0.001 | [7] -0.049 | [8] 0.049 | [9] -0.057 | [10] 0.006

IFI35 isoform 2 (UniProt P80217)
inactive: [1] -0.025 | [2] 0.014 | [3] -0.025 | [4] -0.026 | [5] -0.024 | [6] -0.065 | [7] -0.003 | [8] -0.015 | [9] -0.001 | [10] -0.025

IDH3A (UniProt P50213)
inactive: [1] 0.009 | [2] 0.023 | [3] -0.039 | [4] 0.03 | [5] 0.005 | [6] 0.016 | [7] -0.011 | [8] -0.008 | [9] -0.003 | [10] -0.006

IL10RB (UniProt Q08334)
inactive: [1] 0.003 | [2] -0.035 | [3] 0.068 | [4] 0.132 | [5] -0.057 | [6] 0.002 | [7] -0.154 | [8] -0.016 | [9] 0.004 | [10] -0.068

IMP3 (UniProt Q9NV31)
inactive: [1] -0.03 | [2] 0.011 | [3] -0.002 | [4] 0.033 | [5] 1.27 | [6] -0.229 | [7] -0.077 | [8] 0.032 | [9] -0.036 | [10] -0.046

ILRUN (UniProt Q9H6K1)
inactive: [1] -0.12 | [2] -0.038 | [3] -0.003 | [4] -0.073 | [5] 0.005 | [6] -0.047 | [7] -0.012 | [8] 0.033 | [9] 0.041 | [10] -0.038

IGF2BP1 (UniProt Q9NZI8)
inactive: [1] -0.031 | [2] -0.005 | [3] -0.061 | [4] 0.002 | [5] 0.041 | [6] -0.018 | [7] 0.01 | [8] 0.042 | [9] -0.017 | [10] -0.028

ICA1 (UniProt Q05084)
inactive: [1] 0.018 | [2] 0.04 | [3] 0.025 | [4] -0.015 | [5] -0.023 | [6] -0.053 | [7] 0.021 | [8] -0.034 | [9] -0.017 | [10] 0.016

IMMT (UniProt Q16891)
inactive: [1] -0.009 | [2] 0.016 | [3] -0.075 | [4] 0.037 | [5] 0.01 | [6] 0.041 | [7] -0.005 | [8] -0.007 | [9] -0.017 | [10] -0.035

HSPH1 (UniProt Q92598)
inactive: [1] -0.007 | [2] 0.009 | [3] 0.015 | [4] 0.002 | [5] 0.025 | [6] 0.012 | [7] -0.003 | [8] -0.006 | [9] 0.002 | [10] 0.013

IGSF8 (UniProt Q969P0)
inactive: [1] 0.025 | [2] -0.106 | [3] 0 | [4] -0.117 | [5] 0.034 | [6] -0.077 | [7] 0.048 | [8] -0.012 | [9] 0.021 | [10] -0.006

IDH1 (UniProt O75874)
inactive: [1] 0.01 | [2] -0.001 | [3] -0.043 | [4] 0 | [5] 0.019 | [6] 0.009 | [7] 0 | [8] 0.013 | [9] 0.01 | [10] -0.011

Taken from the results shown (2 entries):
IMP3 (UniProt Q9NV31)
inactive: [1] -0.03 | [2] 0.011 | [3] -0.002 | [4] 0.033 | [5] 1.27 | [6] -0.229 | [7] -0.077 | [8] 0.032 | [9] -0.036 | [10] -0.046

ILRUN (UniProt Q9H6K1)
inactive: [1] -0.12 | [2] -0.038 | [3] -0.003 | [4] -0.073 | [5] 0.005 | [6] -0.047 | [7] -0.012 | [8] 0.033 | [9] 0.041 | [10] -0.038

Going on with the list:

IFITM3 (UniProt Q01628)
inactive: [1] 0.068 | [2] 0.055 | [3] 0.049 | [4] -0.013 | [5] 0.064 | [6] -0.069 | [7] -0.136 | [8] -0.044 | [9] -0.133 | [10] -0.051

IDH3G (UniProt P51553)
inactive: [1] 0.022 | [2] -0.032 | [3] -0.012 | [4] 0.018 | [5] 0.094 | [6] 0.01 | [7] 0.032 | [8] -0.026 | [9] 0.029 | [10] 0.006

IKBKG isoform 2 (UniProt Q9Y6K9)
inactive: [1] 0.005 | [2] 0.03 | [3] -0.018 | [4] 0.024 | [5] 0.038 | [6] -0.019 | [7] -0.007 | [8] -0.007 | [9] 0.018 | [10] -0.029

INTS11 (UniProt Q5TA45)
inactive: [1] 0.015 | [2] 0.042 | [3] -0.015 | [4] -0.04 | [5] 0.033 | [6] 0.024 | [7] 0.013 | [8] 0.026 | [9] -0.006 | [10] 0.008

IMPA1 isoform 3 (UniProt P29218)
inactive: [1] -0.001 | [2] 0.021 | [3] -0.002 | [4] -0.005 | [5] 0.014 | [6] 0.002 | [7] -0.003 | [8] -0.014 | [9] 0 | [10] 0.018

INTS1 (UniProt Q8N201)
inactive: [1] -0.041 | [2] 0.012 | [3] -0.087 | [4] 0.035 | [5] 0.028 | [6] -0.01 | [7] 0.017 | [8] 0.016 | [9] -0.038 | [10] 0.011

ILK (UniProt Q13418)
inactive: [1] 0.01 | [2] -0.066 | [3] 0.071 | [4] 0 | [5] 0.014 | [6] -0.076 | [7] -0.001 | [8] 0.097 | [9] -0.022 | [10] -0.036

HYOU1 (UniProt Q9Y4L1)
inactive: [1] 0.012 | [2] -0.002 | [3] -0.004 | [4] -0.007 | [5] 0.005 | [6] 0.018 | [7] -0.018 | [8] -0.012 | [9] 0 | [10] -0.007

HSPB1 (UniProt P04792)
inactive: [1] -0.001 | [2] 0.003 | [3] -0.032 | [4] 0.012 | [5] 0.015 | [6] 0.025 | [7] -0.006 | [8] 0.006 | [9] 0 | [10] 0.006

INPP5K (UniProt Q9BT40)
inactive: [1] -0.134 | [2] 0.148 | [3] 0.038 | [4] -0.049 | [5] 0.031 | [6] -0.065 | [7] 0.054 | [8] 0.035 | [9] 0.009 | [10] 0.117

IMPAD1 (UniProt Q9NX62)
inactive: [1] -0.045 | [2] -0.036 | [3] -0.022 | [4] -0.027 | [5] -0.071 | [6] -0.032 | [7] 0.051 | [8] -0.044 | [9] 0.017 | [10] -0.001

ILKAP (UniProt Q9H0C8)
inactive: [1] 0.023 | [2] -0.01 | [3] 0.025 | [4] -0.094 | [5] -0.009 | [6] 0.011 | [7] -0.005 | [8] 0.005 | [9] 0.026 | [10] 0.044

ID1 (UniProt P41134)
inactive: [1] 0.073 | [2] 0.143 | [3] 0.008 | [4] 0.249 | [5] 0.005 | [6] -0.005 | [7] -0.041 | [8] 0.057 | [10] 0.037

HSPB11 (UniProt Q9Y547)
inactive: [1] 0.054 | [2] -0.029 | [3] 0.018 | [4] -0.002 | [5] -0.007 | [6] -0.021 | [7] 0.113 | [8] 0.012 | [9] -0.023 | [10] -0.031

IDE, A0A3B3ISG5
inactive: [1] -0.002 | [2] -0.001 | [3] 0.011 | [4] 0.014 | [5] 0.002 | [6] 0.041 | [7] -0.01 | [8] -0.007 | [9] 0.004 | [10] 0.011

IFNGR1 (UniProt P15260)
inactive: [1] 0.227 | [2] -0.068 | [3] -0.018 | [4] 0.133 | [5] -0.125 | [6] 0.047 | [7] -0.08 | [8] 0.013 | [9] 0.084 | [10] -0.101

IKBKB (UniProt O14920)
inactive: [1] -0.002 | [2] 0.06 | [3] -0.034 | [4] -0.015 | [5] 0.025 | [6] -0.055 | [7] -0.003 | [8] 0.076 | [9] 0.027 | [10] -0.057
